Laboratory results reported in article PMC9309721.
Results are given in words; binding and its absence hold for the method and conditions named. In cells and extracts the contact can be indirect. Some binding calls cover weakened binding; strength is not graded here.

By UniProt entry, the sequences of proteins in these tests, tags left out. Where a name states a change or a piece, a line headed by the entry shows the natural chain unless it says otherwise.
UniProt Q00613: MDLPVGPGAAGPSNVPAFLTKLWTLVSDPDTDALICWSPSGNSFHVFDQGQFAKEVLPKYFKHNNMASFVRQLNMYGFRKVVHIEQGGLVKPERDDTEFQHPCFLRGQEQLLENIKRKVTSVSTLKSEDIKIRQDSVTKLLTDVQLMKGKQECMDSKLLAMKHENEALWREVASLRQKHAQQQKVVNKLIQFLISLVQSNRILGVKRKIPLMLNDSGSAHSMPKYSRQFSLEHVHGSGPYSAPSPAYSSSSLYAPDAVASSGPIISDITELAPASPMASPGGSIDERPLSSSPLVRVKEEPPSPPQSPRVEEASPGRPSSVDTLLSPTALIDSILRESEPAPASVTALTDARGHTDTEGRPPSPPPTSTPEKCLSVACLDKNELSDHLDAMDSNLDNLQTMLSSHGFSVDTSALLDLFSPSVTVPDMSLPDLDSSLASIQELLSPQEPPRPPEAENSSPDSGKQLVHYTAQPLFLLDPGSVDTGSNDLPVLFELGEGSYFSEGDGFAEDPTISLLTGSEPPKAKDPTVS
UniProt Q00403: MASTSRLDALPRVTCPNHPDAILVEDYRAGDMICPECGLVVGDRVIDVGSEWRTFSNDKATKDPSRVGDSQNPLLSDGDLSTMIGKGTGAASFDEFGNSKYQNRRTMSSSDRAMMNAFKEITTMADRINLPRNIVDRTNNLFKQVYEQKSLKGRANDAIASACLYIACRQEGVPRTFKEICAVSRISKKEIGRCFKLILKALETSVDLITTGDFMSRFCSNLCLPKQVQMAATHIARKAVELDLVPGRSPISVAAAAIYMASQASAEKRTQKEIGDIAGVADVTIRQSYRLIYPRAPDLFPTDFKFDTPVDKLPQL
UniProt P50750: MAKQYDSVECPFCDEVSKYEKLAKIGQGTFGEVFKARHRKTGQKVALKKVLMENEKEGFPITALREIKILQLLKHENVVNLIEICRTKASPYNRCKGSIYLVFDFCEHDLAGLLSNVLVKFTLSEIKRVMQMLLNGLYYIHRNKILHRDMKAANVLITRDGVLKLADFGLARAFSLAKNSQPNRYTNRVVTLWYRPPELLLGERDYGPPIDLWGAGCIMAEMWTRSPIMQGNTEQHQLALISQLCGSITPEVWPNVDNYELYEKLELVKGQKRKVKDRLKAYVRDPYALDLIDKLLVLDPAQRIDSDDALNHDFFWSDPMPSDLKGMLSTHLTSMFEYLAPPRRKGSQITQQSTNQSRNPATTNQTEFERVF

Key:
[1] = target: FLAG-tagged WT-HSF1 (human) (UniProt Q00613); test: co-IP; HEK-293 cells transfected for 48 h with FLAG-tagged WT or mutant HSF1; lysates in IP lysis buffer (20 mM Tris, 150 mM NaCl, 1 mM EDTA, 1 mM EGTA, 1% Triton X-100) immunoprecipitated with FLAG resin beads or control mouse IgG beads; immunoblot
[2] = target: FLAG-tagged T527A-HSF1 (human) (UniProt Q00613); test: as above
[3] = target: FLAG-tagged WT-HSF1 (human) (UniProt Q00613); test: cross-linking + SEC; HEK-293 cells expressing WT-HSF1 without AKT1, fixed with EGS; RIPA lysate on Superdex 200 Increase 10/300 GL in 50 mM Tris pH 8.0, 150 mM NaCl, 1% NP-40, 4 °C; fractions immunoblotted for HSF1
[4] = target: T142A-HSF1 (human) (UniProt Q00613); test: cross-linking; HEK-293 cells transfected for 48 h with WT- or T142A-HSF1 with or without AKT1 or CK2; cells fixed with 1 mM EGS for 30 min at RT, quenched with 10 mM Tris pH 7.5, RIPA lysate, SDS/PAGE, immunoblot for HSF1 trimers
[5] = target: T142A-HSF1 (human) (UniProt Q00613); test: cross-linking + SEC; HEK-293 cells co-expressing AKT1 and WT- or T142A-HSF1, fixed with EGS; RIPA lysate on Superdex 200 Increase 10/300 GL in 50 mM Tris pH 8.0, 150 mM NaCl, 1% NP-40, 4 °C; fractions immunoblotted for HSF1

Substance | binding [1] | binding [2] | binding [3] | binding [4] | binding [5]
TFIIB (from UniProt Q00403 1-316) | binds | no binding |  |  | 
CDK9 (from UniProt P50750 1-372) | binds | no binding |  |  | 
FLAG-tagged WT-HSF1 (from UniProt Q00613 1-529) |  |  | no binding (condition: cells without co-expressed AKT1) |  | 
T142A-HSF1 (from UniProt Q00613 1-529) |  |  |  | no binding | no binding
